{
  "source": "the supplement of paper PMC8728848",
  "binders": {"B1": {"name": "R2-fiber (Pseudomonas aeruginosa), Q9S576 (protein)", "chain": "HHHHHHKVAKDLVVSLAYQVRTEDGVLVDESPVSAPLDYLHGHGSLISGLETALEGHEVGDKFDVAVGANDAYGQYDENLVQRVPKDVFMGVDELQVGMRFLAETDQGPVPVEITAVEDDHVVVDGNHMLAGQNLKFNVEVVAIREATEEELAHGHVHGAHDHHHDHDHDGCCGGHGHDHGHEHGGEGCCGGKGNGGCGCHENLYFQGVTAGMALAATDIPGLDASKLVSGVLAEQRLPVFARGLATAVSNSSDPNTATVPLMLTNHANGPVAGRYFYIQSMFYPDQNGNASQIATSYNATSEMYVRVSYAANPSIREWLPWQRCDIGGSFTKEADGELPGGVNLDSMVTSGWWSQSFTAQAASGANYPIVRAGLLHVYAASSNFIYQTYQAYDGESFYFRCRHSNTWFPWRRMWHGGDFNPSDYLLKSGFYWNALPGKPATFPPSAHNHDVGQLTSGILPLARGGVGSNTAAGARSTIGAGVPATASLGASGWWRDNDTGLIRQWGQVTCPADADASITFPIPFPTLCLGGYANQTSAFHPGTDASTGFRGATTTTAVIRNGYFAQAVLSWEAFGR"}},
  "test_in_all_cases": "glycan array binding signal (z-score within array); higher = stronger binding",
  "settings_in_all_cases": "glycan notation: IUPAC condensed, linker removed",
  "key": {"[1]": {"target": "Neu5Ac(a2-6)Gal(b1-4)GlcNAc(b1-2)Man(a1-3)[GlcNAc(b1-4)][Neu5Ac(a2-6)Gal(b1-4)GlcNAc(b1-2)Man(a1-6)]Man(b1-4)GlcNAc(b1-4)GlcNAc", "outline": "(§1)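 The binding signal is a Z-score computed within each array and averaged over linkers. Arrays of the same protein sequence at different concentrations or buffers were also averaged together. Data originate from 3228 arrays in the Consortium for Functional Glycomics database, kept only where the protein sequence was available.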"}, "[2]": {"target": "Neu5Ac(a2-6)Gal(b1-4)GlcNAc(b1-2)Man(a1-3)[Man(a1-6)]Man(b1-4)GlcNAc(b1-4)GlcNAc", "outline": "as §1"}, "[3]": {"target": "Neu5Ac(a2-6)Gal(b1-4)GlcNAc(b1-2)Man(a1-3)[Neu5Ac(a2-3)Gal(b1-4)GlcNAc(b1-2)Man(a1-6)]Man(b1-4)GlcNAc(b1-4)GlcNAc", "outline": "as §1"}, "[4]": {"target": "Neu5Ac(a2-6)Gal(b1-4)GlcNAc(b1-2)Man(a1-3)[Neu5Ac(a2-6)Gal(b1-4)GlcNAc(b1-2)Man(a1-6)]Man(b1-4)GlcNAc(b1-4)GlcNAc", "outline": "as §1"}, "[5]": {"target": "Neu5Ac(a2-6)Gal(b1-4)GlcNAc(b1-2)Man(a1-3)[Neu5Ac(a2-6)Gal(b1-4)GlcNAc(b1-2)Man(a1-6)]Man(b1-4)GlcNAc(b1-4)[Fuc(a1-6)]GlcNAc", "outline": "as §1"}, "[6]": {"target": "Neu5Ac(a2-6)Gal(b1-4)GlcNAc(b1-2)Man(a1-6)Man(b1-4)GlcNAc(b1-4)GlcNAc", "outline": "as §1"}, "[7]": {"target": "Neu5Ac(a2-6)Gal(b1-4)GlcNAc(b1-2)Man(a1-6)[Gal(b1-4)GlcNAc(b1-2)Man(a1-3)]Man(b1-4)GlcNAc(b1-4)GlcNAc", "outline": "as §1"}, "[8]": {"target": "Neu5Ac(a2-6)Gal(b1-4)GlcNAc(b1-2)Man(a1-6)[GlcNAc(b1-2)Man(a1-3)]Man(b1-4)GlcNAc(b1-4)GlcNAc", "outline": "as §1"}, "[9]": {"target": "Neu5Ac(a2-6)Gal(b1-4)GlcNAc(b1-2)Man(a1-6)[Man(a1-3)]Man(b1-4)GlcNAc(b1-4)GlcNAc", "outline": "as §1"}, "[10]": {"target": "Neu5Ac(a2-6)Gal(b1-4)GlcNAc(b1-2)[Neu5Ac(a2-6)Gal(b1-4)GlcNAc(b1-4)]Man(a1-3)[GlcNAc(b1-4)][Neu5Ac(a2-6)Gal(b1-4)GlcNAc(b1-2)[Neu5Ac(a2-6)Gal(b1-4)GlcNAc(b1-6)]Man(a1-6)]Man(b1-4)GlcNAc(b1-4)GlcNAc", "outline": "as §1"}, "[11]": {"target": "Neu5Ac(a2-6)Gal(b1-4)GlcNAc(b1-2)[Neu5Ac(a2-6)Gal(b1-4)GlcNAc(b1-4)]Man(a1-3)[GlcNAc(b1-4)][Neu5Ac(a2-6)Gal(b1-4)GlcNAc(b1-4)Man(a1-6)]Man(b1-4)GlcNAc(b1-4)GlcNAc", "outline": "as §1"}, "[12]": {"target": "Neu5Ac(a2-6)Gal(b1-4)GlcNAc(b1-2)[Neu5Ac(a2-6)Gal(b1-4)GlcNAc(b1-6)]Man(a1-6)[Neu5Ac(a2-6)Gal(b1-4)GlcNAc(b1-2)Man(a1-3)][GlcNAc(b1-4)]Man(b1-4)GlcNAc(b1-4)GlcNAc", "outline": "as §1"}, "[13]": {"target": "Neu5Ac(a2-6)Gal(b1-4)GlcNAc(b1-3)Gal(b1-3)GlcNAc", "outline": "as §1"}, "[14]": {"target": "Neu5Ac(a2-6)Gal(b1-4)GlcNAc(b1-3)Gal(b1-4)GlcNAc", "outline": "as §1"}, "[15]": {"target": "Neu5Ac(a2-6)Gal(b1-4)GlcNAc(b1-3)Gal(b1-4)GlcNAc(b1-2)Man(a1-3)[Neu5Ac(a2-6)Gal(b1-4)GlcNAc(b1-3)Gal(b1-4)GlcNAc(b1-2)Man(a1-6)]GalNAc", "outline": "as §1"}, "[16]": {"target": "Neu5Ac(a2-6)Gal(b1-4)GlcNAc(b1-3)Gal(b1-4)GlcNAc(b1-3)Gal(b1-4)GlcNAc", "outline": "as §1"}, "[17]": {"target": "Neu5Ac(a2-6)Gal(b1-4)GlcNAc(b1-3)Gal(b1-4)GlcNAc(b1-3)Gal(b1-4)GlcNAc(b1-2)Man(a1-3)[Neu5Ac(a2-6)Gal(b1-4)GlcNAc(b1-3)Gal(b1-4)GlcNAc(b1-3)Gal(b1-4)GlcNAc(b1-2)Man(a1-6)]GalNAc", "outline": "as §1"}, "[18]": {"target": "Neu5Ac(a2-6)Gal(b1-4)GlcNAc(b1-3)Gal(b1-4)GlcNAc(b1-3)GalNAc", "outline": "as §1"}, "[19]": {"target": "Neu5Ac(a2-6)Gal(b1-4)GlcNAc(b1-3)Gal(b1-4)GlcNAc(b1-3)[Neu5Ac(a2-6)Gal(b1-4)GlcNAc(b1-3)Gal(b1-4)GlcNAc(b1-6)]GalNAc", "outline": "as §1"}, "[20]": {"target": "Neu5Ac(a2-6)Gal(b1-4)GlcNAc(b1-3)Gal(b1-4)GlcNAc(b1-6)[Gal(b1-3)]GalNAc", "outline": "as §1"}, "[21]": {"target": "Neu5Ac(a2-6)Gal(b1-4)GlcNAc(b1-3)Gal(b1-4)[Fuc(a1-3)]GlcNAc(b1-3)Gal(b1-4)[Fuc(a1-3)]GlcNAc", "outline": "as §1"}, "[22]": {"target": "Neu5Ac(a2-6)Gal(b1-4)GlcNAc(b1-3)GalNAc", "outline": "as §1"}, "[23]": {"target": "Neu5Ac(a2-6)Gal(b1-4)GlcNAc(b1-3)[Neu5Ac(a2-6)Gal(b1-4)GlcNAc(b1-6)]GalNAc", "outline": "as §1"}, "[24]": {"target": "Neu5Ac(a2-6)Gal(b1-4)GlcNAc(b1-6)GalNAc", "outline": "as §1"}, "[25]": {"target": "Neu5Ac(a2-6)Gal(b1-4)GlcNAc(b1-6)[Gal(b1-3)GlcNAc(b1-3)]Gal(b1-4)Glc", "outline": "as §1"}, "[26]": {"target": "Neu5Ac(a2-6)Gal(b1-4)GlcNAc(b1-6)[Gal(b1-3)]GalNAc", "outline": "as §1"}, "[27]": {"target": "Neu5Ac(a2-6)Gal(b1-4)GlcNAc6S", "outline": "as §1"}, "Neu5Ac(a2-6)GalNAc": {"target": "Neu5Ac(a2-6)GalNAc", "outline": "as §1"}, "[28]": {"target": "Neu5Ac(a2-6)GalNAc(b1-4)GlcNAc", "outline": "as §1"}, "[29]": {"target": "Neu5Ac(a2-6)GalNAc(b1-4)GlcNAc6S", "outline": "as §1"}},
  "note": "This is one part of the list.",
  "data": [
    {"binder": "B1", "values": [
      {"measurement": "glycan array binding signal (z-score)", "setting": "[1]", "value": -0.507},
      {"measurement": "glycan array binding signal (z-score)", "setting": "[2]", "value": -0.154},
      {"measurement": "glycan array binding signal (z-score)", "setting": "[3]", "value": -0.866},
      {"measurement": "glycan array binding signal (z-score)", "setting": "[4]", "value": -0.371},
      {"measurement": "glycan array binding signal (z-score)", "setting": "[5]", "value": -0.676},
      {"measurement": "glycan array binding signal (z-score)", "setting": "[6]", "value": -0.664},
      {"measurement": "glycan array binding signal (z-score)", "setting": "[7]", "value": -0.838},
      {"measurement": "glycan array binding signal (z-score)", "setting": "[8]", "value": 0.361},
      {"measurement": "glycan array binding signal (z-score)", "setting": "[9]", "value": -0.125},
      {"measurement": "glycan array binding signal (z-score)", "setting": "[10]", "value": -0.74},
      {"measurement": "glycan array binding signal (z-score)", "setting": "[11]", "value": 0.438},
      {"measurement": "glycan array binding signal (z-score)", "setting": "[12]", "value": -0.557},
      {"measurement": "glycan array binding signal (z-score)", "setting": "[13]", "value": -1.21},
      {"measurement": "glycan array binding signal (z-score)", "setting": "[14]", "value": -0.035},
      {"measurement": "glycan array binding signal (z-score)", "setting": "[15]", "value": -0.854},
      {"measurement": "glycan array binding signal (z-score)", "setting": "[16]", "value": -0.036},
      {"measurement": "glycan array binding signal (z-score)", "setting": "[17]", "value": -0.064},
      {"measurement": "glycan array binding signal (z-score)", "setting": "[18]", "value": 1.44},
      {"measurement": "glycan array binding signal (z-score)", "setting": "[19]", "value": -0.443},
      {"measurement": "glycan array binding signal (z-score)", "setting": "[20]", "value": -0.196},
      {"measurement": "glycan array binding signal (z-score)", "setting": "[21]", "value": -0.169},
      {"measurement": "glycan array binding signal (z-score)", "setting": "[22]", "value": -0.084},
      {"measurement": "glycan array binding signal (z-score)", "setting": "[23]", "value": -0.127},
      {"measurement": "glycan array binding signal (z-score)", "setting": "[24]", "value": -0.606},
      {"measurement": "glycan array binding signal (z-score)", "setting": "[25]", "value": 0.031},
      {"measurement": "glycan array binding signal (z-score)", "setting": "[26]", "value": 0.265},
      {"measurement": "glycan array binding signal (z-score)", "setting": "[27]", "value": -0.196},
      {"measurement": "glycan array binding signal (z-score)", "setting": "Neu5Ac(a2-6)GalNAc", "value": -0.423},
      {"measurement": "glycan array binding signal (z-score)", "setting": "[28]", "value": 0.449},
      {"measurement": "glycan array binding signal (z-score)", "setting": "[29]", "value": -0.47}
    ]}
  ]
}
